The record followed here is EP4428150A1 (Peptide Logic LLC, dated 2024).

The target of the experiment is cynomolgus monkey PRL (cynomolgus monkey). As to the kind of experiment: bio-layer interferometry.

No constants are given. Whether binding was seen depends on the method and setting. Some entries that bind do so weakly or less than the wild type.

B1: Antibody 37 (antibody, human IgG4 S228P, kappa, V domains shown)
VH: QVQLVQSGAEVKKPGASVKVSCKASGYTFSNFWIEWVRQAPGQRLEWMGEIFPGTGSTYYTEKFKVRVTITRDTSASTAYMELSSLRSEDTAVYYCARRGYSDSWFAHWGQGTLVTVSS
VL: DIQMTQSPSSLSASVGDRVTITCRASESVDMYGKSFMHWYQQKPGKAPKLLIYRASTLESGVPSRFSGSGSGTDFTLTISSLQPEDFATYYCQQNVEAPLTFGGGTKVEIKR
notes: Humanized IgG4(S228P), IGHV1-3 heavy and IGKV1-39 light frameworks; also called humanized anti-hPRL antibody
Regarding B1, the binding entry is “binds”.
